Test results: US8420371
Results are given in words; binding and its absence hold for the method and conditions named. Some entries that bind do so weakly or less than the wild type. Sequences can lack the tags named with a protein.

Biological target: human GAD65, residues 84-585, with a C-terminal hexahistidine tag (GAD65Δ1-83) (human) (UniProt Q05329)
Assay: crystal structure, 2.3 Å

binding: binds
B1: human GAD65, residues 84-585, with a C-terminal hexahistidine tag (GAD65Δ1-83) (enzyme)
chain: KVDVNYAFLHATDLLPACDGERPTLAFLQDVMNILLQYVVKSFDRSTKVIDFHYPNELLQEYNWELADQPQNLEEILMHCQTTLKYAIKTGHPRYFNQLSTGLDMVGLAADWLTSTANTNMFTYEIAPVFVLLEYVTLKKMREIIGWPGGSGDGIFSPGGAISNMYAMMIARFKMFPEVKEKGMAALPFLIAFTSEHSHFSLKKGAAALGIGTDSVILIKCDERGKMIPSDLERRILEAKQKGPVPFLVSATAGTTVYGAFDPLLAVADICKKYKIWMHVDAAWGGGLLMSRKHKWKLSGVERANSVTWNPHKMMGVPLQCSALLVREEGLMQNCNQMHASYLFQQDKHYDLSYDTGDKALQCGRHVDVFKLWLMWRAKGTTGFEAHVDKCLELAEYLYNIIKNREGYEMVFDGKPQHTNVCFWYIPPSLRTLEDNEERMSRLSKVAPVIKARMMEYGTTMVSYQPLGDKVNFFRMVISNPAATHQDIDFLIEEIERLGQDLHHHHHH
modifications: PLP bound to the active site lysine by a Schiff base linkage
